Laboratory results from publication doi:10.1101/2025.11.13.683933.
Results are given in words; binding and its absence hold for the method and conditions named. Binding seen in cells or lysates may run through a third protein. Some entries that bind do so weakly or less than the wild type.

Sequences of proteins named here, by UniProt entry; tags and fusion partners are left off. A change or cut given only in a name is not applied to a line headed by its entry.
UniProt Q9GZV5: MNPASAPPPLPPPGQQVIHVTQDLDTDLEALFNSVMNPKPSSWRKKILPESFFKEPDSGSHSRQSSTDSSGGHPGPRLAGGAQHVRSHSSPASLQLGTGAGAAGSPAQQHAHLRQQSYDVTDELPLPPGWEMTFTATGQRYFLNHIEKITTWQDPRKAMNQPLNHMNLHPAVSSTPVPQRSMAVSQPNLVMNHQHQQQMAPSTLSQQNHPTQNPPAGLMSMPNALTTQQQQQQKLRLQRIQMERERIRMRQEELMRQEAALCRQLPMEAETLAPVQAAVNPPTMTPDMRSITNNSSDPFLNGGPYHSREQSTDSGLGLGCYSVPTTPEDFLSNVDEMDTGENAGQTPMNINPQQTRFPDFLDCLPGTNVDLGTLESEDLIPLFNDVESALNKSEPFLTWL
UniProt P05412: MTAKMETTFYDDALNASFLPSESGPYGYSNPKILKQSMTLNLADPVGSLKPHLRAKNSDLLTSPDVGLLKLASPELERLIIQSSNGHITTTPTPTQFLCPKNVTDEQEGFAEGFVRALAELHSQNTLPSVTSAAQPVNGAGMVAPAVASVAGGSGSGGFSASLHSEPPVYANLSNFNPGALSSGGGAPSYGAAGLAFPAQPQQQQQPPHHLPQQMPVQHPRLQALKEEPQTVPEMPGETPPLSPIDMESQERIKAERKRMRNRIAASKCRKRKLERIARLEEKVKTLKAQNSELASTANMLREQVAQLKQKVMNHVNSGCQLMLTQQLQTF
UniProt P53539: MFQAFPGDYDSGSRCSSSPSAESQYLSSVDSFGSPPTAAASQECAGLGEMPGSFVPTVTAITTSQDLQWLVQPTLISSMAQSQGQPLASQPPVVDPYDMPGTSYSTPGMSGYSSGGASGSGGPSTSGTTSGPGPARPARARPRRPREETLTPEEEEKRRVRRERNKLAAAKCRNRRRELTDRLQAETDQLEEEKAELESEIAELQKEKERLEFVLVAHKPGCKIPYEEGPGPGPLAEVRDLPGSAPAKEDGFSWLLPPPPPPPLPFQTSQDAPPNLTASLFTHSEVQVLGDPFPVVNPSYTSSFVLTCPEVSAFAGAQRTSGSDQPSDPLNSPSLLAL
UniProt Q15562: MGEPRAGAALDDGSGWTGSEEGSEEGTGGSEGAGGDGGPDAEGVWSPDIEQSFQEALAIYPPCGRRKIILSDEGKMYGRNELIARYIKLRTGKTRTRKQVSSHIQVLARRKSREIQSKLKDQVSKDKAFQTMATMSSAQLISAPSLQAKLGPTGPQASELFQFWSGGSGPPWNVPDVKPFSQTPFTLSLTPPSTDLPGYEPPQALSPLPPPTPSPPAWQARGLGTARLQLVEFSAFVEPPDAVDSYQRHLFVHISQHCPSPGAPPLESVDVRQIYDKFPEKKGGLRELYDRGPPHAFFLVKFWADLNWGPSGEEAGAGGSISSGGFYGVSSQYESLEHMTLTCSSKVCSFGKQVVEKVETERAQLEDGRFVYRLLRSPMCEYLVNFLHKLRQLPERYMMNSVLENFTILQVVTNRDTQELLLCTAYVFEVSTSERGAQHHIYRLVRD

Biological target: transcriptional co-activator with PDZ-binding motif (TAZ) (human (endogenous in AGS and GA0518)) (UniProt Q9GZV5)
Experiment: co-IP

binding | Substance
binds | AP-1 heterodimer (c-JUN and FOSB) (from UniProt P05412;P53539) (complex)
binds | TEAD2 (from UniProt Q15562 1-447)
